We go through two molecules from patent US20170073337A1, “DIHYDROTHIAZINE AND DIHYDROOXAZINE DERIVATIVES HAVING BACE1 INHIBITORY ACTIVITY” (Shionogi & Co., Ltd., priority 2014, published 2017).

By UniProt entry, the sequences of proteins in these tests, tags left out.
UniProt P21447, whole entry: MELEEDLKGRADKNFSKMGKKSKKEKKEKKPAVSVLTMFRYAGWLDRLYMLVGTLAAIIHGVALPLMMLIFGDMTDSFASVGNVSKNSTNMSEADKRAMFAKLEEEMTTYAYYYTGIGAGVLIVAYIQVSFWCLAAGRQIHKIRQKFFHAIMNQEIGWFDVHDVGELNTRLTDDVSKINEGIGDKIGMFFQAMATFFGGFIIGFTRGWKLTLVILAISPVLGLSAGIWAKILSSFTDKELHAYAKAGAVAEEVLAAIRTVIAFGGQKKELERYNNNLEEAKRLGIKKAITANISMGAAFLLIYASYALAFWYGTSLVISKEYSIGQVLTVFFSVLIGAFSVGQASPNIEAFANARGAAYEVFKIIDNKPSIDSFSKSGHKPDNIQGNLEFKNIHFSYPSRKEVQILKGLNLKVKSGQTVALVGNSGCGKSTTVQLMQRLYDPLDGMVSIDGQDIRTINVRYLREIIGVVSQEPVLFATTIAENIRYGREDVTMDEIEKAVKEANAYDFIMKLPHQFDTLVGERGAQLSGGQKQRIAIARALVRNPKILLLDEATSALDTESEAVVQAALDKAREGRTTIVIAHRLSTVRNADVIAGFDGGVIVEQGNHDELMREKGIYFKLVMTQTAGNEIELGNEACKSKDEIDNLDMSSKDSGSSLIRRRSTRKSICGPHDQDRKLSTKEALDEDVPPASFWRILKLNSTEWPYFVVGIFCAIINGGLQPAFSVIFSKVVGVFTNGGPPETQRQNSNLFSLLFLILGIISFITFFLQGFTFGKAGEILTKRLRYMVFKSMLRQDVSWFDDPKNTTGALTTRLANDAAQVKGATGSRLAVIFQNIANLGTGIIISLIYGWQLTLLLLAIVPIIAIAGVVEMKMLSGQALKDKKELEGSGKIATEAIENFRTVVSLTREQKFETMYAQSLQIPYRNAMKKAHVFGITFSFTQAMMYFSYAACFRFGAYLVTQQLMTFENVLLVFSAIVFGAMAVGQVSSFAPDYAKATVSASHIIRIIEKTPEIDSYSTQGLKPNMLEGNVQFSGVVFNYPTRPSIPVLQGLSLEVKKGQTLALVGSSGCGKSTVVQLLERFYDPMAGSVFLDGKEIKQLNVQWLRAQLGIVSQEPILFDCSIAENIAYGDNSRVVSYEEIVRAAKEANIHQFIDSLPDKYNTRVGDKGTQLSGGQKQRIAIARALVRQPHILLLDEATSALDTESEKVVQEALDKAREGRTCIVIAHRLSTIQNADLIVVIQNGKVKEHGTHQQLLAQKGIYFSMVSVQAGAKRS

For orientation: kinetic solubility means solubility judged after dilution from a stock solution rather than from solid.

One series is described as follows: Solubility test. The class given is physicochemical. The following applies: for solubility kinetic: kinetic from dmso stock. How it is done: A 10 mmol/L solution of the compound was prepared with DMSO, and 2 μL of the compound of the present invention solution was added, respectively, to 198 μL of JP 1st fluid (water was added to 2.0 g of sodium chloride and 7.0 ml, of hydrochloric acid to reach 1000 mL) and JP 2nd fluid (See Table 4). The mixture was left standing for 16 hours at 25° C. or shaken for 1 hour at ruom temperature, and the mixture was vacuum-filtered. The […] was ten or one hundred-fold diluted with metbanol/water=1/1 (v/v) or MeCN/MeOH/H2O(=1/1/2), and the compound concent ration in the filtrate was measured with LC/MS or solid phase extraction (SPE)/MS by the absolute calibration method.

Series [1] can be described thus: Brain distribution studies. The following applies: in vivo; rat, intravenous 0.5 mg/mL/kg, 30 minutes later; area ratio brain/plasma. The protocol: Compound of the present invention was intravenously administered to a rat at 0.5 mg/mL/kg dosage. 30 minutes later, all blood was drawn from the abdominal aorta under isoflurane anesthesia for death from exsanguination. […] The obtained blood was used as plasma after centrifuging. The control plasma was added to the brain sample at 1:1. The control brain homogenate was added to the plasma sample at 1:1. Each sample was measured using LC/MS/MS. The obtained area ratio (a brain/plasma) was used for the brain Kp value.

The target of a further series is T1, P-gp (Mus musculus, UniProt P21447).
T1 construct: from tissue; host or cells: living mice (brain/plasma distribution), wild type versus mdr1a (−/−)
Description: P-gp substrate test using mdr1a (−/−) B6 mice. The class given is in vivo. The following applies: mdr1a (−/−) B6 (KO) and C57BL/6J (wild), brain / plasma, Kp in KO mouse (mdr1a (−/−) B6) / Kp in Wild mouse, 2 mg/kg, po, read-out: Kp ratio (2 mg/kg, po, 2 hr). The protocol:
Animal: mdrla (−/−) B6 mice (KO mouse) or […] mice (Wild mouse)
1. Animals may be fed prior to dosing of the compounds of the present invention. 2. The compounds of the present invention were dosed to three animals for each time point and blood and brain samples were removed at selected time points (e.g. 15 min, 30 min, 1 hr, 2 hr, 4 hr, 6 hr, 8 hr, or 24 hr) after dosing. Blood (0.3-0.7 mL) was collected via trunk blood collection with syringe containing anticoagulants (EDTA and heparin). Blood and tissue (e.g. brain) samples were immediately placed on melting ice. 3. Blood samples were centrifuged (1780×g for 10 minutes) for cell removal to obtain plasma. Then, plasma samples were transferred to a clean tube and stored in a −70° C. freezer until analysis. 4. Tissue (e.g. brain) samples were homogenized at a 1:3 ratio of tissue weight to ml of stilled water and transferred to a clean tube and stored in a −70° C. freezer until analysis. 5. Plasma and tissue (e.g. brain) samples were prepared using protein prceipitation and analyzed by LC/MS/MS. The analytical method was calibrated by including a standard curve constructed with blank plasma or brain samples and known quantities of analyte. Quality control samples were included to monitor the accuracy and precision of the methodology. 6. […]

Setting [2] is: pH 1.2, simulated gastric fluid.

Molecules are shown by their SMILES.

In the case of `C[C@H]1SC(N)=N[C@](C)(c2cc(NC(=O)c3cnc(OCF)cn3)ccc2F)[C@H]1F` [Compound I-9], the solubility (kinetic) is above 50 µM in “Solubility test” (setting [2]) and above 50 µM in the series “Solubility test” (pH 6.8, aqueous buffer). Moreover, the Kp at 0.5 h in series [1] amounted to 3.3. For the same molecule, at P-gp, the Kp at 2 h was 3.13.

`C[C@@H]1SC(N)=N[C@](C)(c2cc(NC(=O)c3cnc(OCF)cn3)ccc2F)[C@@H]1F` [Compound I-112] returned a solubility (kinetic) in “Solubility test” (setting [2]) above 50 µM. The molecule also showed a JP2_μM in “Solubility test” (pH 6.8) above 50.0 µM.
